# According to patent US20170285043A1:
# Chains of the proteins cited; added tags and fusions are not shown. Lines headed by an entry give the natural chain unless they say otherwise; changes in a name come on top.
# UniProt Q9NXC5: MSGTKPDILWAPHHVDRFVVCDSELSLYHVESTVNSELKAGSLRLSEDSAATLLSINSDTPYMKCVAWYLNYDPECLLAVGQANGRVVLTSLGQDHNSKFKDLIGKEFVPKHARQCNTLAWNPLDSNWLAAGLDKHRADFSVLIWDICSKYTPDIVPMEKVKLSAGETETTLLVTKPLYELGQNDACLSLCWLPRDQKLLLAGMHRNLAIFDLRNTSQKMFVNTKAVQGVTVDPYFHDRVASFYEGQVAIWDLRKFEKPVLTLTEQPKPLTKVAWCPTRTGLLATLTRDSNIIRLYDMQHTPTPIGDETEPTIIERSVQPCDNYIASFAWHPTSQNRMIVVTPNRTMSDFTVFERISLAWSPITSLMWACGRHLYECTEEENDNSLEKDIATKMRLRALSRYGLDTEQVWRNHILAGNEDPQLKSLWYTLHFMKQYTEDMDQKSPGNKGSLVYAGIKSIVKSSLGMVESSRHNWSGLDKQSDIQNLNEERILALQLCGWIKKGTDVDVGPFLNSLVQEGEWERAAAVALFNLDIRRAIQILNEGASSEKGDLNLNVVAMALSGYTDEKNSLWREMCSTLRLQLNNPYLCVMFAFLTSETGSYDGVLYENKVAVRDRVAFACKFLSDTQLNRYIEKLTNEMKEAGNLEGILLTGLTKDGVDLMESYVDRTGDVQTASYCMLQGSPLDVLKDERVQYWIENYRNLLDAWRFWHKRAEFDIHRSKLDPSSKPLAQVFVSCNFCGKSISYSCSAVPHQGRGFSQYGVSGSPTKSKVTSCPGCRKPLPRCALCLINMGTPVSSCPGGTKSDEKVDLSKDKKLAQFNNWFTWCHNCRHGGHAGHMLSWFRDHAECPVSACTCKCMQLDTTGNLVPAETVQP
# These are yes or no findings as the source states them, for the method shown. For some assays here: In cells and extracts the contact can be indirect. Some results given as binding are weak or reduced against the parent protein; the word gives no strength. For some assays here: Sequences can lack the tags named with a protein.
# Columns and labels:
# [1] = molecular target: GATOR2, recombinant, transiently co-expressed (HA-Mios, HA-WDR59, HA-WDR24, HA-Sec13, HA-Seh1L) (Homo sapiens (Human)) (UniProt Q9NXC5); experiment: anti-FLAG co-immunoprecipitation, transient co-expression in HEK-293T, immunoblot (FIG. 1B)
# [2] = molecular target: GATOR2 complex immunopurified through stably expressed FLAG-WDR24 (human) (UniProt Q9NXC5); experiment: anti-FLAG immunoprecipitation of FLAG-WDR24 from HEK-293T, immunoblot (figure not shown)
binding [1],binding [2],Binder
binds,,"FLAG-Sestrin3 (protein, not shown: small tags and cut ends) MNRGGGSPSAAANYLLCTNCRKVLRKDKRIRVSQPLTRGPSAFIPEKEVVQANTVDERTNFLVEEYSTSGRLDNITQVMSLHTQYLESFLRSQFYMLRMDGPLPLPYRHYIAIMAAARHQCSYLINMHVDEFLKTGGIAEWLNGLEYVPQRLKNLNEINKLLAHRPWLITKEHIQKLVKTGENNWSLPELVHAVVLLAHYHALASFVFGSGINPERDPEISNGFRLISVNNFCVCDLANDNNIENASLSGSNFGIVDSLSELEALMERMKRLQEEREDEEASQEEMSTRFEKEKKESLFVVSGDTFHSFPHSDFEDDMIITSDVSRYIEDPGFGYEDFARRGEEHLPTFRAQDYTWENHGFSLVNRLYSDIGHLLDEKFRMVYNLTYNTMATHEDVDTTMLRRALFNYVHCMFGIRYDDYDYGEVNQLLERSLKVYIKTVTCYPERTTKRMYDSYWRQFKHSEKVHVNLLLMEARMQAELLYALRAITRHLT"
,binds,endogenous Sestrin3 (protein) MNRGGGSPSAAANYLLCTNCRKVLRKDKRIRVSQPLTRGPSAFIPEKEVVQANTVDERTNFLVEEYSTSGRLDNITQVMSLHTQYLESFLRSQFYMLRMDGPLPLPYRHYIAIMAAARHQCSYLINMHVDEFLKTGGIAEWLNGLEYVPQRLKNLNEINKLLAHRPWLITKEHIQKLVKTGENNWSLPELVHAVVLLAHYHALASFVFGSGINPERDPEISNGFRLISVNNFCVCDLANDNNIENASLSGSNFGIVDSLSELEALMERMKRLQEEREDEEASQEEMSTRFEKEKKESLFVVSGDTFHSFPHSDFEDDMIITSDVSRYIEDPGFGYEDFARRGEEHLPTFRAQDYTWENHGFSLVNRLYSDIGHLLDEKFRMVYNLTYNTMATHEDVDTTMLRRALFNYVHCMFGIRYDDYDYGEVNQLLERSLKVYIKTVTCYPERTTKRMYDSYWRQFKHSEKVHVNLLLMEARMQAELLYALRAITRHLT
